# Test results reported in publication PMC12664589 (Journal of Structural Biology: X, 2025).
# Biological target: CpNce103p (Candida parapsilosis, UniProt G8B6R8)
# Test: biochemical
structure (smiles),measurement,value
"CC(=O)Nc1nnc(S(N)(=O)=O)s1 [Compound 1, Acetazolamide, reference compound]",Ki,1.2 µM
